Library screening results

Protein sequences, listed by entry. Tags and fused reporters are not part of them.
UniProt E9BF75, entry or part of it: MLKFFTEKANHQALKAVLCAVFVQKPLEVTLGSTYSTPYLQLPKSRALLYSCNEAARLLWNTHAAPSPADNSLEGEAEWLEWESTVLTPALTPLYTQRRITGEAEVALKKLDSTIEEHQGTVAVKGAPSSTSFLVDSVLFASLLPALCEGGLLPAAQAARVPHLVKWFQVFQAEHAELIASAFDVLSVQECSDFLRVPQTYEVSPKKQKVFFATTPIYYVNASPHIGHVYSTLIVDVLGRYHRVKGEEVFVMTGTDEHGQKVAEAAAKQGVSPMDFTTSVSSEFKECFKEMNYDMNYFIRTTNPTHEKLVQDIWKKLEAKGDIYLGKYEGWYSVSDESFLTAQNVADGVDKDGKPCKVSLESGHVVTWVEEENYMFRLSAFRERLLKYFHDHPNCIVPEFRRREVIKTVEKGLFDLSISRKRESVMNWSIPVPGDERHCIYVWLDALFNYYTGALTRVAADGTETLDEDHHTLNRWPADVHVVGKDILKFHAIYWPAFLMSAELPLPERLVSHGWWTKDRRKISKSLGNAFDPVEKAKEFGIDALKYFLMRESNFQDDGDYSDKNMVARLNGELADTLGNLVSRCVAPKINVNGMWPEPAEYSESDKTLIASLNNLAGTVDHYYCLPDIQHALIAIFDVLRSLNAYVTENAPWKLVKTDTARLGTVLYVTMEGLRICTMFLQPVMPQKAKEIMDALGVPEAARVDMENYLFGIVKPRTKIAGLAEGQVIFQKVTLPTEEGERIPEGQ

From ChEMBL document CHEMBL3988442, “University of Dundee, Small-Polar-MMV Screening Library” (2021).

Mtb heat-shock: 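Assay on Mycobacterium tuberculosis, filed only as a heat shock assay from Cornell; the read-out is not stated. The concentration is filed as 10 mM, unlikely as a test dose, so the dose is not known. Direction is inferred from retests: higher values go with stronger inhibition. Of about 69,000 compounds tested this way, about 930 (1.4%) reached 50% or more in at least one test.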
LdMetRS: 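Primary screen of methionyl-tRNA synthetase; the read-out is not stated. Target: Methionyl-tRNA synthetase (putative), Leishmania donovani (UniProt E9BF75). The test concentration is not given. Values are per cent inhibition. Size under these conditions: about 68,000 compounds, about 24 of them at 50% or above in at least one test.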

Results are percentages, as filed.
How 0% and 100% were set is not recorded. Most values in the screen are low, and negative values occur.
This is an unselected part of the compounds tested.

{"compound": "CC(=O)N[C@@H]1CN(C2CCN(c3cccc(C)c3C)CC2)C[C@H]1C(C)C", "Mtb heat-shock": 11.83, "LdMetRS": 2.703}
{"compound": "CNC(=O)[C@@]12CCO[C@@H]1CCN(S(=O)(=O)c1cccnc1)C2", "LdMetRS": 16.5}
{"compound": "COc1cc(F)ccc1-c1ncccc1NC(=O)C(C)C", "Mtb heat-shock": 13.11, "LdMetRS": 8.696}
{"compound": "Cc1cnc(N2C(=O)CSC2c2ccc(N(C)C)cc2)s1", "stereo": "centres unmarked", "Mtb heat-shock": 11.24, "LdMetRS": 13.68}
{"compound": "CCOc1ccc(N(CC(=O)c2ccccc2)C2=NCCCCC2)cc1", "LdMetRS": 11.27}
{"compound": "[H][C@@]12C[C@H](C(=O)Nc3cnccn3)CN(S(C)(=O)=O)[C@]1([H])CCO2", "Mtb heat-shock": -6.385}
{"compound": "CC(C)n1ccnc1CN1CCCN(C(=O)CN(C)C2CC2)CC1", "Mtb heat-shock": -0.9847, "LdMetRS": 16.33}
{"compound": "Cc1cc(CN2CC[C@@H]3O[C@@H](c4nnc(C)o4)C[C@H]3C2)no1", "LdMetRS": 15.58}
{"compound": "CCc1cc(N(C)CCC(O)c2ccccc2)n2nccc2n1", "stereo": "centres unmarked", "Mtb heat-shock": 19.56, "LdMetRS": 3.069}
{"compound": "CCN(CC)CCCN1CCN(c2nc(C)cnc2C)CC1", "Mtb heat-shock": -28.96, "LdMetRS": 12.11}
{"compound": "O=C1CCNc2cc3c(cc2CN1Cc1ccco1)OCO3", "Mtb heat-shock": 22.29, "LdMetRS": 13.97}
{"compound": "CC(C)CN1CCCn2nc(CNC(=O)Cc3cccc(O)c3)cc2C1", "Mtb heat-shock": 3.054, "LdMetRS": 12.33}
{"compound": "CN(CC(=O)N1CCN(CC(C)(C)O)CC1)c1ccc(Cl)cn1", "Mtb heat-shock": -3.798, "LdMetRS": 8.629}
{"compound": "CN(C)C(=O)C1CSCN1C(=O)CCc1ccco1", "stereo": "centres unmarked", "Mtb heat-shock": -0.2122, "LdMetRS": 12.32}
{"compound": "NS(=O)(=O)c1ccc(F)c(C(=O)NCCSc2ccccn2)c1", "Mtb heat-shock": 2.76, "LdMetRS": 11.78}
{"compound": "CCCN(Cc1ccc(OC)nc1)Cc1ccccc1OC", "Mtb heat-shock": -21.11, "LdMetRS": -1.795}
{"compound": "O=C(Nc1cccc(CN2CCOC2=O)c1)N1CCCCCC1", "Mtb heat-shock": -16.37, "LdMetRS": 3.683}
{"compound": "CCc1cnc(N2CC[C@@H]3CN(CCC(C)C)S(=O)(=O)[C@@H]3CC2)nc1", "LdMetRS": 12.05}
{"compound": "COC(=O)NCC(=O)N1CCCn2nc(CN3CC[C@H](F)C3)cc2C1", "Mtb heat-shock": -5.665, "LdMetRS": 9.756}
{"compound": "CS(=O)(=O)N1CCC(n2nnn(-c3ccccc3)c2=O)CC1", "Mtb heat-shock": 16.18, "LdMetRS": 9.346}
{"compound": "CC(C)C(=O)N1CCN(C(=O)N(C)C)CC2(CC(=O)N(C)C2)C1", "stereo": "centres unmarked", "Mtb heat-shock": -18.55, "LdMetRS": 3.746}
{"compound": "O=C(CCc1ccccc1)N1C[C@H]2CCN[C@H]2C1", "LdMetRS": 16.25}